Test results as given in PubChem BioAssay AID2685 (National Center for Advancing Translational Sciences (NCATS), 2010).
The other results are listed elsewhere or left out. Further columns of the screen follow, without active or inactive calls. The list favours compounds with an active or inconclusive main result. The note in brackets gives the kind of curve behind each potency; many fits are weak.

Experiment: qHTS Assay for Lipid Storage Modulators in Drosophila S3 Cells;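 as to cell number change: cells counted by Cell Tracker Red CMTPX staining in the red channel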
Conditions: BODIPY lipid droplet fluorescence, 18-24 h; for cell number change: measured here: cell count max response, cells fed with added oleic acid
Outline: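 Laser-scanning cytometry quantifies lipid droplet accumulation (500–530 nm total intensity; droplet/cell object ratio) in oleic acid-fed (400 uM added) Drosophila S3 cells treated with a concentration series. 20 uM Triacsin C defined 100% inhibition.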

[1] = measured here: cell number channel AC50, cells fed with added oleic acid
[2] = measured here: lipid fluorescence (Fed channel) AC50, cells fed with added oleic acid

COc1ccc(C(CNC(=O)CCOc2ccccc2)N(C)C)cc1 (stereo not drawn)
cell number change: 54% | AC50 [1]: 29.1 µM [rising, single point]

CC[C@H](C)[C@H](NC(=O)OCc1ccccc1)C(=O)Nc1ccc(NC(C)=O)cc1
AC50 [1]: 3.26 µM [rising, single point]

Cc1cc(C)c(NC(=O)CNC(=O)CSc2nnc(N)s2)c(C)c1
cell number change: -6.02%

Cc1ccc2c(Cl)cc(Cl)c(OCC(=O)NC(C)(C)C)c2n1
cell number change: 9.34% | AC50 [1]: 4.61 µM [rising, single point]

C=CCc1cccc2cc(C(=O)OCC(=O)c3ccccc3)c(=O)oc12
AC50 [1]: 1.46 µM [rising, partial curve]

O=C(CCC(=O)OCCCC(F)(F)C(F)(F)F)Nc1ccccc1
cell number change: 4.98%

O=C(Nc1cccc(S(=O)(=O)N2CCCCC2)c1)C1=NN(c2ccccc2)C(=O)CC1
cell number change: -9.83% | AC50 [2]: 8.2 µM [falling, partial curve, poor fit]

COc1ccc(-c2nc3ccccc3c(=O)o2)cc1OC
cell number change: -28.5% | AC50 [2]: 25.9 µM [falling, partial curve]

CC(Nc1ccc(Br)cc1)C(=O)N/N=C/c1ccccc1OCc1ccccc1 (stereo not drawn)
AC50 [1]: 1.84 µM [rising, partial curve, poor fit]

O=C1CCC(C(=O)Nc2nnc(C3CC3)s2)=NN1
AC50 [1]: 1.46 µM [rising, partial curve, poor fit]

COc1ccc(CCNC(=O)CCC(=O)N2CC(C)Oc3ccccc32)cc1OC (stereo not drawn)
cell number change: -16.7%

CC(Sc1ccc(Cl)cc1)C(=O)NCc1cccnc1 (stereo not drawn)
cell number change: 93.2% | AC50 [1]: 10.3 µM [rising, partial curve] | AC50 [2]: 8.2 µM [rising, partial curve]

Cc1ccc(NC(=O)c2ccc3c(SCC(=O)O)c4c(nc3c2)CCCC4)c(Br)c1
cell number change: -39% | AC50 [1]: 32.6 µM [falling, single point]

Cc1cc2cc(CNC(=O)c3ccc(S(=O)(=O)N(C)C)cc3)ccc2n1C
AC50 [2]: 20.6 µM [rising, partial curve]

COC(=O)c1cc(C(=O)N2CCN(c3cccc(C)c3C)CC2)cc([N+](=O)[O-])c1
cell number change: 30.1%

CN(CCO)C(=O)c1cccc2c1-c1ccccc1C2=O
cell number change: 5.27% | AC50 [2]: 0.291 µM [falling, full curve]

O=C(NCCc1ccccc1Cl)C1CCN(S(=O)(=O)c2cccs2)CC1
cell number change: 5.97% | AC50 [1]: 0.082 µM [rising, full curve, poor fit] | AC50 [2]: 0.58 µM [rising, single point]

C=CCn1c(SCc2csc(-c3ccc(Cl)cc3)n2)nnc1-c1ccccc1OC
cell number change: -33.1% | AC50 [1]: 29.1 µM [falling, single point] | AC50 [2]: 29.1 µM [falling, single point]

CC(=O)c1c(C)[nH]c(C(=O)OCC(=O)NCCc2ccc(F)cc2)c1C
cell number change: -22.3% | AC50 [2]: 16.4 µM [falling, partial curve, poor fit]

Cc1cc(C)c(C#N)c(N2CCN(Cc3ccc4c(c3)OCO4)CC2)n1
cell number change: 0.87% | AC50 [2]: 7.31 µM [rising, partial curve]

CCOCC(=O)Nc1nc2ccc(OCC)cc2s1
AC50 [2]: 0.651 µM [rising, single point]

CC(C)NC(=O)c1cc(-c2ccc3c(c2)OCO3)on1
AC50 [1]: 0.146 µM [rising, full curve, poor fit]

Clc1ccccc1OCc1nc(-c2ccncc2)no1
cell number change: -5.8% | AC50 [2]: 0.651 µM [rising, partial curve]

Cc1cc(-c2cc(C(=O)NCc3ccccc3)on2)nc(NC2CCCC2)n1
cell number change: 3.87% | AC50 [2]: 3.66 µM [rising, partial curve, poor fit]

COc1cc(CC(=O)NCCc2ccc(S(N)(=O)=O)cc2)cc(OC)c1OC
cell number change: -47.7% | AC50 [1]: 1.16 µM [falling, full curve] | AC50 [2]: 4.11 µM [falling, full curve]

Cc1ccc(-c2nnc(NC(=O)c3ccco3)o2)c(C)c1
AC50 [1]: 2.06 µM [falling, partial curve]

CSc1nnc2n(-c3ccccc3)c(=O)c3c4c(sc3n12)CCC4
cell number change: -10.7%

Cc1nc(NC(=O)CN2CCCCC2)sc1C(=O)N(C)C
cell number change: -8.99% | AC50 [2]: 32.6 µM [rising, single point]

CC1(C(=O)O)CCC(C(=O)Nc2ccc(OC(F)(F)Cl)cc2)C1(C)C (stereo not drawn)
cell number change: 2.84%

Cc1cc(S(N)(=O)=O)c(N)c(S(N)(=O)=O)c1
cell number change: -18.1% | AC50 [2]: 0.651 µM [falling, single point]

O=c1[nH]c(CN2CCCCC2)nc2ccccc12
cell number change: 18.1%

COc1ccc(NS(=O)(=O)c2cccc(C(=O)Nc3cccc(C(=O)O)c3)c2)cc1
cell number change: 11.1% | AC50 [2]: 0.58 µM [rising, single point]

CCn1cc(CN2CCCC(C(=O)Nc3ccc(-c4cscn4)cc3)C2)cn1 (stereo not drawn)
cell number change: 14.4% | AC50 [2]: 7.31 µM [rising, partial curve, poor fit]

CC(=O)Nc1ccc(S(=O)(=O)NNC(=O)c2cc3c4ccccc4n(C)c3s2)cc1
cell number change: 152% | AC50 [1]: 13 µM [rising, partial curve] | AC50 [2]: 1.84 µM [rising, partial curve]

CCOC(=O)/C(=C\c1ccc(OC)c(OC)c1)C(=O)c1cccnc1
AC50 [2]: 29.1 µM [falling, single point]

c1csc(-c2nn3c(-c4ccncc4)nnc3s2)c1
cell number change: 2.3% | AC50 [2]: 18.4 µM [rising, single point]

CCc1nc(N2CCC3(CC2)OCCO3)c2nnn(Cc3ccccc3)c2n1
cell number change: 47.4% | AC50 [1]: 0.731 µM [rising, full curve] | AC50 [2]: 3.26 µM [rising, partial curve, poor fit]

CCN1C(Nc2ccccc2)=NC[C@@H]1Cc1ccccc1
AC50 [2]: 25.9 µM [falling, single point]

CCCCNC(=O)CCc1c(C)nc2c(c(C)nn2-c2ccccc2)c1C
cell number change: 8.45% | AC50 [1]: 0.092 µM [rising, full curve, poor fit] | AC50 [2]: 6.51 µM [falling, partial curve]

CC1CCN(C(=O)CC(NC(=O)c2ccccc2Cl)c2ccccc2)CC1 (stereo not drawn)
cell number change: 9.25% | AC50 [2]: 16.4 µM [rising, single point]

O=C(NCC1CCCO1)Nc1cc(Cl)cc(Cl)c1 (stereo not drawn)
cell number change: 152% | AC50 [1]: 18.4 µM [rising, partial curve]

Cc1ccc(CCNC(=O)CSCc2ccc(F)cc2)cc1
cell number change: -31.2% | AC50 [2]: 29.1 µM [falling, single point]

CCc1cc2c(N=Nc3c(O)[nH]c4ccccc34)ncnc2s1
cell number change: 39.4% | AC50 [1]: 16.4 µM [rising, single point]

N#Cc1nc(Cl)c(Cl)c(NN)c1Cl
cell number change: 36.8% | AC50 [1]: 0.92 µM [rising, full curve] | AC50 [2]: 1.3 µM [rising, full curve]

CNC(=O)c1ccc(NC(=O)CCNC(=O)Nc2ccccc2)cc1
cell number change: -4%

O=C(Nc1ccccc1)C1=C(N2CCOCC2)/C(=C/c2cccnc2)CC1
AC50 [1]: 0.461 µM [rising, full curve]

CCC(C)NC(=O)CSc1nnc(-c2ccc(OC)c(OC)c2)c(-c2ccc(OC)c(OC)c2)n1 (stereo not drawn)
cell number change: 5% | AC50 [2]: 2.59 µM [rising, single point]

Cc1cc2ncn(C3CC(=O)N(Cc4ccccc4)C3=O)c2cc1C (stereo not drawn)
AC50 [1]: 3.26 µM [rising, single point] | AC50 [2]: 4.11 µM [rising, single point]

CCOC(=O)C1CCCN(C(=O)CCCn2nnnc2CN2CCOCC2)C1 (stereo not drawn)
cell number change: -6.1% | AC50 [2]: 2.91 µM [rising, single point]

CC(=O)Oc1ccccc1C(=O)Oc1ccccc1C(=O)O
cell number change: -8.31% | AC50 [2]: 0.651 µM [falling, full curve, poor fit]

CCn1cc(C(=O)N(C)Cc2ccc(OC(F)F)cc2)c(=O)c2ccc(C)nc21
AC50 [2]: 1.64 µM [falling, partial curve, poor fit]

OC(COc1ccc(Br)cc1)CN1CCC(Cc2ccccc2)CC1 (stereo not drawn)
cell number change: -7.46%

O=C(O)C1C2CCC(O2)C1C(=O)Nc1ccc(O)cc1 (stereo not drawn)
cell number change: -1.73% | AC50 [2]: 6.51 µM [rising, full curve, poor fit]

CN1CC=C2C(C#N)=C(N)C(C#N)(C#N)[C@H](c3ccoc3)[C@H]2C1
cell number change: 8% | AC50 [2]: 0.103 µM [rising, full curve, poor fit]

Nc1ccccc1SC1CC(=O)N(c2ccccc2Cl)C1=O (stereo not drawn)
cell number change: 35.6% | AC50 [1]: 29.1 µM [rising, single point]

O=S(=O)(c1ccc(N2CCCC2)nc1)N1CCOCC1
cell number change: 8.45% | AC50 [2]: 0.731 µM [falling, full curve]

O=C(c1ccc(S(=O)(=O)NCc2ccco2)cc1)N1CCCC(C(F)(F)F)C1 (stereo not drawn)
cell number change: -18.7% | AC50 [2]: 4.11 µM [falling, single point]

CCN1/C(=C\c2ccc3cc(C)ccc3[n+]2CC)Sc2cc(C)c(C)cc21
cell number change: -98.5% | AC50 [2]: 4.61 µM [falling, full curve]

O=C1Nc2ccccc2C1(c1ccccc1)c1ccccc1
cell number change: -23% | AC50 [1]: 0.651 µM [falling, full curve] | AC50 [2]: 0.651 µM [falling, full curve]

Cc1cccc(CS(=O)(=O)c2ncc(Cl)c(C(=O)NCc3ccccc3)n2)c1
cell number change: 6.23% | AC50 [1]: 2.91 µM [falling, partial curve] | AC50 [2]: 3.66 µM [falling, partial curve]

COc1ccc(OC)c(N(CC(=O)N2CCN(Cc3ccccc3)CC2)S(C)(=O)=O)c1
cell number change: -11.5% | AC50 [2]: 7.31 µM [rising, partial curve, poor fit]

COC(=O)CNC(=O)Cc1c(C)n(C(=O)c2ccc(Cl)cc2)c2ccc(OC)cc12
cell number change: -12.9% | AC50 [2]: 16.4 µM [falling, single point]
